Results: paper PMC4567805
These are yes or no findings as the source states them, for the method shown. Binding seen in cells or lysates may run through a third protein. Some entries that bind do so weakly or less than the wild type.

Protein sequences, listed by entry. Tags and fused reporters are not part of them.
UniProt P07355: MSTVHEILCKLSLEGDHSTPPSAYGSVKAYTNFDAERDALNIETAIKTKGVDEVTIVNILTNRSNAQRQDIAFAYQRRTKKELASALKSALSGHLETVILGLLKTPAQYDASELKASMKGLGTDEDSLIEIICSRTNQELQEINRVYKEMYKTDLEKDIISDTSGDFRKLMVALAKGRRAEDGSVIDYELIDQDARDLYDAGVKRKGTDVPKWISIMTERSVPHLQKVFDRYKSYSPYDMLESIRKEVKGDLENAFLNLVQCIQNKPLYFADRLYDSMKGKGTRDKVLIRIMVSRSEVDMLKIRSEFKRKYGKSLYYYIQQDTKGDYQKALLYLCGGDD

Molecular target: Annexin A2 (human (endogenous in Ishikawa and HEC-1A)) (UniProt P07355)
Assay: co-IP; RIPA lysates of Ishikawa and HEC-1A (and CaoV3) cells; precipitated with mouse anti-ANXA2 monoclonal or goat anti-HE4 polyclonal antibody (3 h, 4 °C) and protein A/G PLUS-Agarose overnight at 4 °C; blotted with anti-HE4 and anti-ANXA2; mouse or goat IgG as negative control; repeated three times

binding: binds
B1: Human epididymis protein 4 (protein, UniProt Q14508 31-124)
chain: EKTGVCPELQADQNCTQECVSDSECADNLKCCSAGCATFCSLPNDKEGSCPQVNINFPQLGLCRDQCQVDSQCPGQMKCCRNGCGKVSCVTPNF
